Assay: ESR spin trapping (DMPO) of superoxide under white light
Settings: for Production of superoxide (DMPO-OOH ESR signal): 35 μM, 1 mM NADH, white light; for Production of superoxide (DMPO-OOH ESR signal) / Production of superoxide in presence of histidine compared with NADH: 1:3 H2O:DMSO; for Production of superoxide in presence of histidine compared with NADH: 2 mM histidine

C[N+]1(C)CC2c3c4c5c6c3c3c(c7ccc8c9ccc%10c%11c%12c%13c%14c(c6c6c3c7c8c(c9c%10%13)c%146)=C3C5C(C=C4)C(C=C%11)C3%12)C2C1.[I-] (centres unmarked) [CI1]
Production of superoxide (DMPO-OOH ESR signal): substantial amounts of superoxide
Production of superoxide in presence of histidine compared with NADH: sharply lower (at least ten times)

C[N+]1(C)Cc2c3c4c5c6c7c8c9c(c%10c8c8c(c%11c%12c(c%13c%14ccc%15c(c2C1)c4c1c%15c%14c2c%13c%11c8c7c2c61)C[N+](C)(C)C%12)C1C[N+](C)(C)CC%101)C=CC3C95.[I-].[I-].[I-] (centres unmarked) [CI3]
Production of superoxide (DMPO-OOH ESR signal): substantial amounts of superoxide
Production of superoxide in presence of histidine compared with NADH: sharply lower (at least ten times)
Production of superoxide, BF6 compared with BF4 (in presence of NADH): more superoxide than BF4

Reference: US20100184818A1, “PHOTOSENSITIZERS FOR TARGETED PHOTODYNAMIC THERAPY” (THE GENERAL HOSPITAL CORPORATION, priority 2007, published 2010)
